Reference: PubChem BioAssay AID1259254 (NCATS, 2017)
The deposit covers about 59,000 reagents; shown is a part drawn at random. About 1,550 of them (2.6%) were called active. 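G2 share is only a proxy for re-replication; each gene was hit by three separate siRNAs, and active genes were retested.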 Raw values vary from plate to plate and are shown uncorrected. The numbers tell different reagents against one gene apart. The record does not give: the amount of reagent.

Purpose: 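Finding genes that stop cells copying their DNA twice in one cycle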 (primary screen)
Cells: human HCT116 colorectal cancer cells
Reagents: single siRNA against human genes
Duration: 3 days
Read-out: 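Imaged Hoechst DNA stain sorts each cell into a cycle phase by DNA amount; per plate, G2 fraction set to 0% for non-targeting and 100% for GMNN siRNA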
Direction: G2 robust z-score and G2 cells, % of GMNN control: higher = more G2 cells, more excess DNA replication; raw share of cells in G2: higher = larger share of cells with G2 DNA content
Hit rule: 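Active siRNAs have a G2 robust z of 5 or more median absolute deviations over the median, which in these data means about 38% or higher of GMNN control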

gene	siRNA no.	G2 robust z-score	G2 cells, % of GMNN control	raw share of cells in G2 (%)	call
SOCS4 (suppressor of cytokine signaling 4)	1	3.39	26.8	14.8	inactive
SOCS4 (suppressor of cytokine signaling 4)	2	1.7	14.9	7.77	inactive
SOCS4 (suppressor of cytokine signaling 4)	3	-0.822	-2.82	0.995	inactive
FXYD3 (FXYD domain containing ion transport regulator 3)	1	1.79	15.6	11	inactive
FXYD3 (FXYD domain containing ion transport regulator 3)	2	0.261	4.81	6.41	inactive
FXYD3 (FXYD domain containing ion transport regulator 3)	3	-0.278	1.01	4.77	inactive
C19orf38 (chromosome 19 open reading frame 38)	1	-0.631	-1.48	3.04	inactive
C19orf38 (chromosome 19 open reading frame 38)	2	-0.0641	2.52	3.99	inactive
C19orf38 (chromosome 19 open reading frame 38)	3	-0.0489	2.62	4.03	inactive
HSF5 (heat shock transcription factor 5)	1	0.487	6.4	6.9	inactive
HSF5 (heat shock transcription factor 5)	2	2.06	17.5	13.8	inactive
HSF5 (heat shock transcription factor 5)	3	1.87	16.1	11.9	inactive
IL11 (interleukin 11)	1	-0.242	1.27	5.51	inactive
IL11 (interleukin 11)	2	1.85	16	10.5	inactive
IL11 (interleukin 11)	3	4.92	37.6	16.9	inactive
RPL21P62 (ribosomal protein L21 pseudogene 62)	1	5.19	39.5	16.6	active
RPL21P62 (ribosomal protein L21 pseudogene 62)	2	1.72	15.1	9.45	inactive
RPL21P62 (ribosomal protein L21 pseudogene 62)	3	0.497	6.47	5.87	inactive
MAL (mal, T cell differentiation protein (MAL blood group))	1	-0.4	0.155	3.25	inactive
MAL (mal, T cell differentiation protein (MAL blood group))	2	0.516	6.6	8.09	inactive
MAL (mal, T cell differentiation protein (MAL blood group))	3	0.669	7.67	8.33	inactive
FILIP1 (filamin A interacting protein 1)	1	1.79	15.6	9.79	inactive
FILIP1 (filamin A interacting protein 1)	2	-0.214	1.46	5.1	inactive
FILIP1 (filamin A interacting protein 1)	3	-0.859	-3.07	2.28	inactive
ANO1 (anoctamin 1)	1	0.807	8.65	7.85	inactive
ANO1 (anoctamin 1)	2	0.0181	3.09	5.42	inactive
ANO1 (anoctamin 1)	3	3.92	30.6	12.9	inactive
MYO1E (myosin IE)	1	0.425	5.96	7.83	inactive
MYO1E (myosin IE)	2	0.304	5.11	7.33	inactive
MYO1E (myosin IE)	3	-0.1	2.26	3.94	inactive
EVPLL (envoplakin like)	1	-0.44	-0.127	3.23	inactive
EVPLL (envoplakin like)	2	-1.32	-6.29	1.31	inactive
EVPLL (envoplakin like)	3	1.19	11.3	7.94	inactive
RPL13AP6 (ribosomal protein L13a pseudogene 6)	1	2.36	19.6	8.84	inactive
RPL13AP6 (ribosomal protein L13a pseudogene 6)	2	1.23	11.6	8.05	inactive
RPL13AP6 (ribosomal protein L13a pseudogene 6)	3	1.16	11.2	7.29	inactive
UFD1 (ubiquitin recognition factor in ER associated degradation 1)	1	2.26	18.9	13.5	inactive
UFD1 (ubiquitin recognition factor in ER associated degradation 1)	2	0.0644	3.42	5.25	inactive
UFD1 (ubiquitin recognition factor in ER associated degradation 1)	3	2.47	20.3	10.5	inactive
CHRDL2 (chordin like 2)	1	-0.306	0.817	4.72	inactive
CHRDL2 (chordin like 2)	2	3.32	26.3	15.3	inactive
CHRDL2 (chordin like 2)	3	-1.37	-6.68	0.965	inactive
TBC1D26 (TBC1 domain family member 26)	1	0.469	6.27	6.14	inactive
TBC1D26 (TBC1 domain family member 26)	2	-0.0671	2.5	4.35	inactive
TBC1D26 (TBC1 domain family member 26)	3	-0.397	0.173	4.26	inactive
C16orf46 (chromosome 16 open reading frame 46)	1	0.821	8.74	7.6	inactive
C16orf46 (chromosome 16 open reading frame 46)	2	1.56	13.9	7.48	inactive
C16orf46 (chromosome 16 open reading frame 46)	3	-0.0623	2.53	2.56	inactive
RWDD2A (RWD domain containing 2A)	1	1.64	14.5	9.91	inactive
RWDD2A (RWD domain containing 2A)	2	-0.952	-3.73	2.22	inactive
RWDD2A (RWD domain containing 2A)	3	-0.447	-0.174	1.77	inactive
MSX2 (msh homeobox 2)	1	1.36	12.6	10.4	inactive
MSX2 (msh homeobox 2)	2	-0.981	-3.93	3.84	inactive
MSX2 (msh homeobox 2)	3	0.347	5.41	4.98	inactive
TCEAL2 (transcription elongation factor A like 2)	1	0.133	3.91	4.34	inactive
TCEAL2 (transcription elongation factor A like 2)	2	0.125	3.85	3.97	inactive
TCEAL2 (transcription elongation factor A like 2)	3	-0.4	0.151	4.23	inactive
MYADM (myeloid associated differentiation marker)	1	1.06	10.4	8.49	inactive
MYADM (myeloid associated differentiation marker)	2	-0.783	-2.54	2.2	inactive
MYADM (myeloid associated differentiation marker)	3	1.41	12.9	7.02	inactive
FOXD4L1 (forkhead box D4 like 1)	1	0.325	5.25	6.62	inactive
FOXD4L1 (forkhead box D4 like 1)	2	-0.284	0.971	5.11	inactive
FOXD4L1 (forkhead box D4 like 1)	3	-0.284	0.967	6.42	inactive
LEMD1-DT (LEMD1 divergent transcript)	1	0.73	8.1	6.6	inactive
LEMD1-DT (LEMD1 divergent transcript)	2	-0.521	-0.695	2.77	inactive
LEMD1-DT (LEMD1 divergent transcript)	3	0.915	9.41	6.13	inactive
CA4 (carbonic anhydrase 4)	1	-0.925	-3.54	3.51	inactive
CA4 (carbonic anhydrase 4)	2	1.98	16.9	11.1	inactive
CA4 (carbonic anhydrase 4)	3	-0.117	2.14	4.79	inactive
FBXW8 (F-box and WD repeat domain containing 8)	1	2.24	18.7	11.5	inactive
FBXW8 (F-box and WD repeat domain containing 8)	2	0.429	5.99	6.53	inactive
FBXW8 (F-box and WD repeat domain containing 8)	3	0.88	9.16	6.5	inactive
SNRPD3 (small nuclear ribonucleoprotein D3 polypeptide)	1	2.56	20.9	12.7	inactive
SNRPD3 (small nuclear ribonucleoprotein D3 polypeptide)	2	6.96	52	22.4	active
SNRPD3 (small nuclear ribonucleoprotein D3 polypeptide)	3	0.903	9.32	7.04	inactive
SPA17 (sperm autoantigenic protein 17)	1	2.1	17.8	9.97	inactive
SPA17 (sperm autoantigenic protein 17)	2	1.19	11.3	9.04	inactive
SPA17 (sperm autoantigenic protein 17)	3	0.788	8.51	6.01	inactive
PRKAR2A	1	1.49	13.5	9.61	inactive
PRKAR2A	2	-0.481	-0.417	4.52	inactive
PRKAR2A	3	-0.278	1.01	4.48	inactive
LCE3D (late cornified envelope 3D)	1	-0.419	0.0174	4.11	inactive
LCE3D (late cornified envelope 3D)	2	5.77	43.6	16.4	active
LCE3D (late cornified envelope 3D)	3	0.559	6.9	4.5	inactive
VPS51 (VPS51 subunit of GARP complex)	1	3.55	27.9	18.4	inactive
VPS51 (VPS51 subunit of GARP complex)	2	-0.743	-2.26	3.26	inactive
VPS51 (VPS51 subunit of GARP complex)	3	-0.856	-3.05	2.33	inactive

Records above with an active call:
gene	siRNA no.	G2 robust z-score	G2 cells, % of GMNN control	raw share of cells in G2 (%)	call
RPL21P62 (ribosomal protein L21 pseudogene 62)	1	5.19	39.5	16.6	active
SNRPD3 (small nuclear ribonucleoprotein D3 polypeptide)	2	6.96	52	22.4	active
LCE3D (late cornified envelope 3D)	2	5.77	43.6	16.4	active
